{"sequences": {"note": "Protein sequences, listed by entry. Tags and fused reporters are not part of them.", "UniProt P03088": "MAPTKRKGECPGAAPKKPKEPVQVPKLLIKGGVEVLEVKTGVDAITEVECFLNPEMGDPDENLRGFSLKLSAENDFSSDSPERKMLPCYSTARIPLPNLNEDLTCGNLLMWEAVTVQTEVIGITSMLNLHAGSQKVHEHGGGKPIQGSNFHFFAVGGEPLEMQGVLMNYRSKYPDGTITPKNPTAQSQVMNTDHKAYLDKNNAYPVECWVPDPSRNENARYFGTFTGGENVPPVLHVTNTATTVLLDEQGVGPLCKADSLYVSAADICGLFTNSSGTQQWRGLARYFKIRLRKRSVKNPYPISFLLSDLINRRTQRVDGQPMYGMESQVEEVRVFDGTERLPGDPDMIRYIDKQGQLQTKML"}, "source": "paper PMC5992339", "about": "“The Structure of an Infectious Human Polyomavirus and Its Interactions with Cellular Receptors” (Structure(London, England:1993), 2018)", "target": "BK polyomavirus major capsid protein VP1 (BK polyomavirus, Dunlop strain) (UniProt P03088)", "assay": "cryo-EM structure; purified native BKV virions (0.25 mg/ml) adsorbed on carbon-coated lacey grids in buffer A without Triton X-100; icosahedral reconstructions: unliganded 3.8 A, with 20 mM GT1b oligosaccharide 3.4 A, with heparin 10 mg/ml 3.6 A, with 5 mM DTT (reduced) 6.5 A; both purified", "note": "These are yes or no findings as the source states them, for the method shown. Some entries that bind do so weakly or less than the wild type."}
{"substance": "BK polyomavirus minor capsid protein VP2 (or its N-terminally truncated variant VP3) (from UniProt P03094 1-351)", "values": [{"measurement": "binding", "value": "binds"}]}
